Data as given in PubChem BioAssay AID743454 (Peter MacCallum Cancer Centre, 2014)
The whole screen tested about 18,000 reagents; this is an unselected part. 450 of all reagents (2.5%) count as active. 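Single biological run; no consistent viability z cut-off exists, so the class columns, not z-scores, define the calls.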

Test: 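Knock-downs lowering viability or raising caspase 3/7 activity in vorinostat-treated resistant cells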 (primary screen)
System: human HCT116-VR colon cancer cells, selected for vorinostat resistance
Reagents: siRNA pool against human genes, 40 nM siRNA pool
Timing: vorinostat for 24 h, read-out about 72 h after transfection
Challenge: vorinostat at 2.5 µM final
Measurement: 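Two measures, CellTiter-Fluor viability and luminescent caspase 3/7 activity, each as fold change against same-plate mock wells, mean of duplicates, then screen-wide robust z-score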
Direction: viability robust z-score: higher = more viable cells than screen typical; caspase robust z-score: higher = more caspase 3/7 activity than screen typical
Active means: 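a knock-down is a hit when classed RV1 or RV2 for lowered viability, or CA1 or CA2 for caspase activation; those lethal without drug were dropped; hits were retested singly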

no.	gene	viability hit class	caspase hit class	viability robust z-score	caspase robust z-score	call
1	CHMP4C (charged multivesicular body protein 4C)	no change	no change	0.74	-0.16	inactive
2	MYBPC1 (myosin binding protein C1)	no change	no change	0.14	0.52	inactive
3	GPHN (gephyrin)	no change	no change	0.93	-0.1	inactive
4	PAPPA (pappalysin 1)	no change	no change	1.19	3.42	inactive
5	UBE2E2 (ubiquitin conjugating enzyme E2 E2)	no change	no change	-0.44	-0.46	inactive
6	GHRHR (growth hormone releasing hormone receptor)	no change	no change	-0.17	4.3	inactive
7	SALL3 (spalt like transcription factor 3)	no change	CA1 (caspase activation)	-1.06	5.92	active
8	OR51D1 (olfactory receptor family 51 subfamily D member 1)	no change	no change	0.94	0.98	inactive
9	TECRL (trans-2,3-enoyl-CoA reductase like)	no change	no change	-0.46	-0.21	inactive
10	NMB (neuromedin B)	no change	no change	-0.55	1.08	inactive
11	TDO2 (tryptophan 2,3-dioxygenase)	no change	no change	0.6	0.14	inactive
12	SLC38A9	no change	no change	-0.1	-1	inactive
13	C6orf136 (chromosome 6 open reading frame 136)	no change	no change	0.48	-0.7	inactive
14	MFHAS1 (multifunctional ROCO family signaling regulator 1)	no change	no change	-0.17	0.42	inactive
15	API5 (apoptosis inhibitor 5)	no change	no change	0.59	-0.66	inactive
16	LCN15 (lipocalin 15)	no change	no change	-0.34	-0.18	inactive
17	ABHD12B (abhydrolase domain containing 12B)	no change	no change	-0.26	0.05	inactive
18	KIF2B (kinesin family member 2B)	no change	no change	0.3	-0.69	inactive
19	HDLBP (high density lipoprotein binding protein)	no change	no change	-0.18	-0.38	inactive
20	OR5L1 (olfactory receptor family 5 subfamily L member 1)	no change	no change	-0.55	4.12	inactive
21	SETD2 (SET domain containing 2, histone lysine methyltransferase)	no change	no change	-0.95	-0.78	inactive
22	MASP2 (MBL associated serine protease 2)	RV2 (reduced viability)	no change	-2.96	2.29	active
23	CYP26A1 (cytochrome P450 family 26 subfamily A member 1)	no change	no change	1.04	2.05	inactive
24	BOC (BOC cell adhesion associated, oncogene regulated)	no change	no change	-0.67	4.39	inactive
25	LDHB (lactate dehydrogenase B)	no change	no change	0.3	-0.98	inactive
26	ZNF517 (zinc finger protein 517)	no change	no change	0.82	-0.46	inactive
27	MEGF11 (multiple EGF like domains 11)	no change	no change	0.6	1.02	inactive
28	LCP2 (lymphocyte cytosolic protein 2)	no change	no change	-0.2	-0.7	inactive
29	TBCEL (tubulin folding cofactor E like)	no change	no change	0.38	0.61	inactive
30	CEACAM3 (CEA cell adhesion molecule 3)	no change	no change	-1.4	-0.22	inactive
31	OR10G3 (olfactory receptor family 10 subfamily G member 3)	no change	no change	0.6	-0.02	inactive
32	RRM1 (ribonucleotide reductase catalytic subunit M1)	no change	CA2 (caspase activation)	-3.45	7.44	active
33	NECTIN4 (nectin cell adhesion molecule 4)	no change	no change	-1.31	-0.96	inactive
34	C12orf42 (chromosome 12 open reading frame 42)	no change	no change	0.76	-0.18	inactive
35	PRPS1 (phosphoribosyl pyrophosphate synthetase 1)	no change	no change	-0.42	1.22	inactive
36	CYP4B1 (cytochrome P450 family 4 subfamily B member 1)	no change	no change	0.56	-0.03	inactive
37	KANK3 (KN motif and ankyrin repeat domains 3)	no change	no change	-0.3	-0.54	inactive
38	FHL1 (four and a half LIM domains 1)	no change	no change	-0.2	-0.42	inactive
39	ANAPC7 (anaphase promoting complex subunit 7)	no change	no change	2.11	0.64	inactive
